# Reference: PubChem BioAssay AID445 (National Center for Advancing Translational Sciences (NCATS), 2006)
# This is one part of the list. Further columns of the screen follow, without active or inactive calls. The list favours compounds with an active or inconclusive main result. Words in brackets tell the shape of the fitted curve; partial curves, single points and poor fits give uncertain potencies.
# Experiment: IkB Signaling
# Conditions: ABC-DLBCL IkBa-CBG/CBR dual luciferase ratio (green luciferase fused to IkBa over red control in OCI-Ly3 lymphoma cells), 4 h
# In short: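 Luminescence ratio of IκBα-fused green versus native red beetle luciferase in OCI-Ly3 cells, 4 h post-doxycycline with compound; red signal alone, scaled from basal (0%) to zero light (-100%), flagged nonspecific or cytotoxic effects.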
# [1] = measured here: control luc red channel unless noted
structure (smiles),measurement,setting,value
C[C@@]12C(=O)OC(=O)[C@@]1(C)[C@@H]1CC[C@@H]2O1,AC50,[1],"31.6 µM [falling, partial curve]"
COc1ccc(-c2nc3sc(CCNC(=O)c4ccccc4C)c(C)n3n2)cc1,AC50,[1],"39.8 µM [falling, single point]"
CC(CNC(=O)CCS(=O)(=O)c1ccc2c(c1)oc(=O)n2C)c1ccccc1 (stereo not drawn),AC50,[1],"31.6 µM [falling, single point]"
COc1cccc2sc(N3CCN(C(=O)CCS(=O)(=O)c4ccc(F)cc4)CC3)nc12,AC50,[1],"15.8 µM [falling, partial curve]"
COc1ccc(C(c2nnnn2C2CCCC2)N2CCC(C)CC2)c(OC)c1 (stereo not drawn),AC50,[1],"15.8 µM [falling, partial curve]"
Cc1ccc(CNC(=O)C(=O)NCC(c2cccnc2)N2CCN(c3ccccc3F)CC2)cc1 (stereo not drawn),AC50,[1],"15.8 µM [falling, partial curve]"
Cc1ccc(NC(=O)Cn2nnc(C(=O)NCCc3ccccc3)c2N)cc1C,AC50,[1],"0.2 µM [falling, partial curve, poor fit]"
Cc1ccc(C(=O)Nc2nc(-c3ccccc3)ns2)cc1,AC50,[1],"39.8 µM [rising, single point] [measured here: IkB-luc green channel]"
CCc1ccc(C2NC(=O)c3[nH]nc(-c4cccc(OC)c4)c32)cc1 (stereo not drawn),AC50,[1],"25.1 µM [falling, single point]"
O=C(C1CCN(S(=O)(=O)c2cccnc2)CC1)N1CCN(c2ccccc2Cl)CC1,AC50,[1],"39.8 µM [falling, single point]"
COc1ccccc1CC(=O)Nc1ccc2nc(N3CCC(C)CC3)cc(C)c2c1,AC50,[1],"20 µM [falling, partial curve]"
CCc1ccc(-n2c(CCC(=O)O)ccc2-c2ccc(F)cc2)cc1,AC50,[1],"20 µM [falling, partial curve]"
COc1cc2c(=O)n(CCC(=O)NCC3CCCO3)c(=O)n(CC(=O)Nc3ccc(F)cc3)c2cc1OC (stereo not drawn),AC50,[1],"1 µM [falling, partial curve]"
CC(=NC1CCCCC1)C1=C(O)c2ccccc2C1=O,AC50,[1],"20 µM [falling, partial curve]"
Cc1ccc(O)c(NC(=O)CCS(=O)(=O)c2nc(-c3ccc4c(c3)OCO4)cc(C(F)(F)F)n2)c1,AC50,[1],"6.31 µM [falling, partial curve]"
Cc1c(C(=O)NCc2ccc3c(c2)OCO3)oc2ccc(S(=O)(=O)N3CCCC3)cc12,AC50,[1],"10 µM [falling, partial curve]"
CCc1ccc(CNC(=O)CCn2c(=O)c3cccn3c3ccc(F)cc32)cc1,AC50,[1],"39.8 µM [falling, single point]"
CCOc1ccccc1NC(=O)COc1ccc(S(=O)(=O)NC2CCCCC2)cc1,AC50,[1],"20 µM [falling, single point]"
NC(=O)c1oc2ccccc2c1NC(=O)c1nc2ccccc2s1,AC50,[1],"6.31 µM [falling, partial curve]"
O=C(Nc1ccc(F)c(F)c1)C1CCCN1S(=O)(=O)c1cccc2nsnc12 (stereo not drawn),AC50,[1],"2 µM [rising, partial curve, poor fit]"
O=S(=O)(c1ccccc1)c1nc(-c2ccc(F)cc2)oc1N1CCCCCC1,AC50,[1],"39.8 µM [falling, single point]"
COc1ccc(-c2cc(-c3ccc(OC)cc3)[nH]n2)cc1,AC50,[1],"20 µM [falling, partial curve]"
CCOC(=O)c1ccc(-c2ccc(/C=C(\C#N)C(=O)Nc3ccc(C)cc3OC)o2)cc1,AC50,[1],"1 µM [falling, full curve]"
CCCCN1C(=O)C(O)(c2c(C)[nH]c3ccccc23)c2ccccc21 (stereo not drawn),AC50,[1],"15.8 µM [falling, single point]"
COCCNC(=O)Cn1ncc2c(C)n(Cc3ccc(C)cc3)c(C)c2c1=O,AC50,[1],"31.6 µM [falling, single point]"
CCOc1ccc(C(=O)c2cn(Cc3ccc(F)cc3)c3ccc(F)cc3c2=O)cc1,AC50,[1],"25.1 µM [falling, partial curve]"
Cc1cccc(-n2ncc3c(N4CCCCCC4)ncnc32)c1,AC50,[1],"31.6 µM [falling, partial curve]"
CC(C)(C)C(=O)OC1=CN(Cc2ccccc2)S(=O)(=O)c2ccccc21,AC50,[1],"15.8 µM [falling, single point]"
CCOc1ccc(C(=O)c2cn(CC(=O)Nc3cc(OC)ccc3OC)c3cc(OC)c(OC)cc3c2=O)cc1,AC50,[1],"2.51 µM [rising, partial curve]"
COc1ccc(-c2ccc(=O)n(CC(=O)NCCc3ccccc3)n2)cc1,AC50,[1],"2.51 µM [rising, partial curve]"
O=C(CN1C(=O)C2(SCC(=O)N2c2ccc(F)cc2)c2ccccc21)NCCc1ccccc1 (stereo not drawn),AC50,[1],"20 µM [falling, single point]"
CCCCN(CCCC)C(=O)CSc1nnc(-c2cc(OC)c(OC)c(OC)c2)o1,AC50,[1],"25.1 µM [falling, partial curve]"
Cc1cc(C)cc(Nc2cc(C(=O)NCc3ccccc3)c3ccccc3n2)c1,AC50,[1],"6.31 µM [falling, partial curve]"
Nc1nc(Nc2ccccc2)nc2ccccc12,AC50,[1],"31.6 µM [falling, single point]"
Cc1cc(C)c(NC(=O)C(C)n2nnc3sc(-c4ccccc4)cc3c2=O)c(C)c1 (stereo not drawn),AC50,[1],"15.8 µM [falling, single point]"
O=c1c2ccccc2nc(SCc2nnc(-c3ccccc3)o2)n1-c1ccccc1,AC50,[1],"3.16 µM [falling, full curve, poor fit]"
CC(=O)c1c(C)oc2ccc(N(C(=O)c3ccncc3)S(=O)(=O)c3ccc(C)cc3C)cc12,AC50,[1],"10 µM [falling, partial curve]"
COc1ccccc1NC(=O)C1=C(C)Nc2nc(SCc3ccccc3Cl)nn2C1c1ccncc1 (stereo not drawn),AC50,[1],"31.6 µM [rising, partial curve]"
CCN(CC)S(=O)(=O)c1ccc(C(=O)NCCSc2c(-c3ccc(OC)cc3)[nH]c3ccccc23)cc1,AC50,[1],"25.1 µM [falling, partial curve]"
CCCCn1nc(NC(=O)c2cccs2)c2cc3cc(OC)ccc3nc21,AC50,[1],"5.01 µM [falling, full curve]"
COc1cccc(NC(=O)c2ccc(-c3nc(COc4ccc(C)cc4)c(C)o3)cc2)c1,AC50,[1],"1.26 µM [falling, full curve, poor fit]"
O=C(Nc1ccc(N2CCN(C(=O)c3ccccc3)CC2)c(Cl)c1)c1ccco1,AC50,measured here: IkB-luc green channel,"12.6 µM [falling, partial curve]"
same,AC50,measured here: control luc red channel,"25.1 µM [falling, partial curve]"
Nc1nc2ccccc2n1/N=C/c1ccc(-c2ccccc2)o1,AC50,[1],"6.31 µM [falling, partial curve]"
Cc1ccc2c(c1)c1c(c(=O)n(-c3ccccc3C)c(=O)n1CC(=O)NCC1CCCO1)n2C (stereo not drawn),AC50,[1],"3.16 µM [falling, full curve]"
Cc1cc(=O)n2nc(N3CCC(C(=O)Nc4ccc(Br)cc4F)CC3)sc2n1,AC50,[1],"12.6 µM [falling, partial curve]"
O=C(CNC(=O)c1ccc(Cl)cc1)OCc1cc(=O)n2nc(C3CCCCC3)sc2n1,AC50,[1],"2.51 µM [rising, partial curve, poor fit]"
CCOC(=O)c1cccc(NC(=O)c2cc3cc4ccc(C)cc4nc3s2)c1,AC50,[1],"0.0316 µM [falling, full curve, poor fit]"
Cc1cccc(NC(=O)Cn2c(=O)n(CCC(=O)N3CCc4ccccc4C3)c(=O)c3ccccc32)c1,AC50,[1],"5.01 µM [falling, full curve]"
O=C(CCN1CCC(c2ccccc2)C1)c1cccs1 (stereo not drawn),AC50,[1],"15.8 µM [falling, partial curve]"
Nc1c(C(=O)NCc2ccccc2)nnn1Cc1cccc(Br)c1,AC50,[1],"1.58 µM [rising, full curve]"
CCOC(=O)c1cc(-c2ccc(F)cc2)n(CCC(=O)NC2CCCCC2)c1C,AC50,[1],"25.1 µM [falling, single point]"
CCCCCCCNS(=O)(=O)c1cccc2c(Cl)cccc12,AC50,[1],"39.8 µM [falling, partial curve]"
CCOc1ccc(NC(=O)NCCN2CCN(c3ccccc3F)CC2)cc1,AC50,[1],"39.8 µM [falling, partial curve, poor fit]"
O=S(=O)(NCc1ccc(Cl)cc1)c1ccc(N2CCCCS2(=O)=O)cc1,AC50,[1],"0.00631 µM [rising, full curve, poor fit]"
COC(=O)c1ccccc1NC(=O)CN1C(=O)COc2ccccc21,AC50,[1],"12.6 µM [falling, partial curve]"
CCOC(=O)Nc1cccc(OCC(=O)Nc2ccccc2OC)c1,AC50,[1],"31.6 µM [falling, single point]"
CCOc1cc(C(=O)Nc2c(NC)c3ccccc3oc2=O)cc(OCC)c1OCC,AC50,[1],"7.94 µM [falling, partial curve]"
Cc1ccc(C)c(CN2C(=O)c3ccccc3Sc3ccc(C(=O)NC4CCCC4)cc32)c1,AC50,[1],"1.58 µM [falling, full curve]"
COc1ccc(NC(=O)c2c(C)oc3ccc(O)c(CN4CCCC(C)C4)c23)cc1Cl (stereo not drawn),AC50,[1],"20 µM [falling, partial curve]"
COc1ccccc1-c1cn(S(=O)(=O)c2ccc(C)cc2)nc1N,AC50,[1],"10 µM [falling, partial curve]"
Cc1ccc(N2CCN(C(=O)CCc3c(C)nc4ncnn4c3C)CC2)c(C)c1,AC50,[1],"31.6 µM [falling, partial curve]"
Cc1cc(C)c(C#N)c(SCC(=O)Nc2ccccc2C#N)n1,AC50,[1],"15.8 µM [falling, partial curve]"

# Shown tab-delimited: part of the list above.
structure (smiles)	measurement	setting	value
COc1ccc(-c2ccc(=O)n(CC(=O)NCCc3ccccc3)n2)cc1	AC50	[1]	2.51 µM [rising, partial curve]
O=C(CN1C(=O)C2(SCC(=O)N2c2ccc(F)cc2)c2ccccc21)NCCc1ccccc1 (stereo not drawn)	AC50	[1]	20 µM [falling, single point]

# Given as tab-separated lines: entries from further up.
structure (smiles)	measurement	setting	value
CCc1ccc(C2NC(=O)c3[nH]nc(-c4cccc(OC)c4)c32)cc1 (stereo not drawn)	AC50	[1]	25.1 µM [falling, single point]
O=C(C1CCN(S(=O)(=O)c2cccnc2)CC1)N1CCN(c2ccccc2Cl)CC1	AC50	[1]	39.8 µM [falling, single point]
COc1ccccc1-c1cn(S(=O)(=O)c2ccc(C)cc2)nc1N	AC50	[1]	10 µM [falling, partial curve]
